No constants are given. Whether binding was seen depends on the method and setting. In cells and extracts the contact can be indirect. Some entries that bind do so weakly or less than the wild type.
Assays:
[1] = target: ATM (ataxia telangiectasia mutated) kinase (human (endogenous in H9/WA09 hESCs)) (UniProt Q13315); assay: co-IP; antibody (anti-53BP1, anti-ATM or IgG control) bound to protein A and protein G Dynabeads; hESC nuclear extract incubated with the beads 5 h at 4°C, washed with PBST, eluted with 0.1 M glycine pH 2.3; western blot
[2] = target: 53BP1 (p53 binding protein 1) (human (endogenous in H9/WA09 hESCs)) (UniProt Q12888); assay: as above

Amino acid sequences for entries named in this document (tags omitted). A change or cut given only in a name is not applied to a line headed by its entry.
UniProt Q13315: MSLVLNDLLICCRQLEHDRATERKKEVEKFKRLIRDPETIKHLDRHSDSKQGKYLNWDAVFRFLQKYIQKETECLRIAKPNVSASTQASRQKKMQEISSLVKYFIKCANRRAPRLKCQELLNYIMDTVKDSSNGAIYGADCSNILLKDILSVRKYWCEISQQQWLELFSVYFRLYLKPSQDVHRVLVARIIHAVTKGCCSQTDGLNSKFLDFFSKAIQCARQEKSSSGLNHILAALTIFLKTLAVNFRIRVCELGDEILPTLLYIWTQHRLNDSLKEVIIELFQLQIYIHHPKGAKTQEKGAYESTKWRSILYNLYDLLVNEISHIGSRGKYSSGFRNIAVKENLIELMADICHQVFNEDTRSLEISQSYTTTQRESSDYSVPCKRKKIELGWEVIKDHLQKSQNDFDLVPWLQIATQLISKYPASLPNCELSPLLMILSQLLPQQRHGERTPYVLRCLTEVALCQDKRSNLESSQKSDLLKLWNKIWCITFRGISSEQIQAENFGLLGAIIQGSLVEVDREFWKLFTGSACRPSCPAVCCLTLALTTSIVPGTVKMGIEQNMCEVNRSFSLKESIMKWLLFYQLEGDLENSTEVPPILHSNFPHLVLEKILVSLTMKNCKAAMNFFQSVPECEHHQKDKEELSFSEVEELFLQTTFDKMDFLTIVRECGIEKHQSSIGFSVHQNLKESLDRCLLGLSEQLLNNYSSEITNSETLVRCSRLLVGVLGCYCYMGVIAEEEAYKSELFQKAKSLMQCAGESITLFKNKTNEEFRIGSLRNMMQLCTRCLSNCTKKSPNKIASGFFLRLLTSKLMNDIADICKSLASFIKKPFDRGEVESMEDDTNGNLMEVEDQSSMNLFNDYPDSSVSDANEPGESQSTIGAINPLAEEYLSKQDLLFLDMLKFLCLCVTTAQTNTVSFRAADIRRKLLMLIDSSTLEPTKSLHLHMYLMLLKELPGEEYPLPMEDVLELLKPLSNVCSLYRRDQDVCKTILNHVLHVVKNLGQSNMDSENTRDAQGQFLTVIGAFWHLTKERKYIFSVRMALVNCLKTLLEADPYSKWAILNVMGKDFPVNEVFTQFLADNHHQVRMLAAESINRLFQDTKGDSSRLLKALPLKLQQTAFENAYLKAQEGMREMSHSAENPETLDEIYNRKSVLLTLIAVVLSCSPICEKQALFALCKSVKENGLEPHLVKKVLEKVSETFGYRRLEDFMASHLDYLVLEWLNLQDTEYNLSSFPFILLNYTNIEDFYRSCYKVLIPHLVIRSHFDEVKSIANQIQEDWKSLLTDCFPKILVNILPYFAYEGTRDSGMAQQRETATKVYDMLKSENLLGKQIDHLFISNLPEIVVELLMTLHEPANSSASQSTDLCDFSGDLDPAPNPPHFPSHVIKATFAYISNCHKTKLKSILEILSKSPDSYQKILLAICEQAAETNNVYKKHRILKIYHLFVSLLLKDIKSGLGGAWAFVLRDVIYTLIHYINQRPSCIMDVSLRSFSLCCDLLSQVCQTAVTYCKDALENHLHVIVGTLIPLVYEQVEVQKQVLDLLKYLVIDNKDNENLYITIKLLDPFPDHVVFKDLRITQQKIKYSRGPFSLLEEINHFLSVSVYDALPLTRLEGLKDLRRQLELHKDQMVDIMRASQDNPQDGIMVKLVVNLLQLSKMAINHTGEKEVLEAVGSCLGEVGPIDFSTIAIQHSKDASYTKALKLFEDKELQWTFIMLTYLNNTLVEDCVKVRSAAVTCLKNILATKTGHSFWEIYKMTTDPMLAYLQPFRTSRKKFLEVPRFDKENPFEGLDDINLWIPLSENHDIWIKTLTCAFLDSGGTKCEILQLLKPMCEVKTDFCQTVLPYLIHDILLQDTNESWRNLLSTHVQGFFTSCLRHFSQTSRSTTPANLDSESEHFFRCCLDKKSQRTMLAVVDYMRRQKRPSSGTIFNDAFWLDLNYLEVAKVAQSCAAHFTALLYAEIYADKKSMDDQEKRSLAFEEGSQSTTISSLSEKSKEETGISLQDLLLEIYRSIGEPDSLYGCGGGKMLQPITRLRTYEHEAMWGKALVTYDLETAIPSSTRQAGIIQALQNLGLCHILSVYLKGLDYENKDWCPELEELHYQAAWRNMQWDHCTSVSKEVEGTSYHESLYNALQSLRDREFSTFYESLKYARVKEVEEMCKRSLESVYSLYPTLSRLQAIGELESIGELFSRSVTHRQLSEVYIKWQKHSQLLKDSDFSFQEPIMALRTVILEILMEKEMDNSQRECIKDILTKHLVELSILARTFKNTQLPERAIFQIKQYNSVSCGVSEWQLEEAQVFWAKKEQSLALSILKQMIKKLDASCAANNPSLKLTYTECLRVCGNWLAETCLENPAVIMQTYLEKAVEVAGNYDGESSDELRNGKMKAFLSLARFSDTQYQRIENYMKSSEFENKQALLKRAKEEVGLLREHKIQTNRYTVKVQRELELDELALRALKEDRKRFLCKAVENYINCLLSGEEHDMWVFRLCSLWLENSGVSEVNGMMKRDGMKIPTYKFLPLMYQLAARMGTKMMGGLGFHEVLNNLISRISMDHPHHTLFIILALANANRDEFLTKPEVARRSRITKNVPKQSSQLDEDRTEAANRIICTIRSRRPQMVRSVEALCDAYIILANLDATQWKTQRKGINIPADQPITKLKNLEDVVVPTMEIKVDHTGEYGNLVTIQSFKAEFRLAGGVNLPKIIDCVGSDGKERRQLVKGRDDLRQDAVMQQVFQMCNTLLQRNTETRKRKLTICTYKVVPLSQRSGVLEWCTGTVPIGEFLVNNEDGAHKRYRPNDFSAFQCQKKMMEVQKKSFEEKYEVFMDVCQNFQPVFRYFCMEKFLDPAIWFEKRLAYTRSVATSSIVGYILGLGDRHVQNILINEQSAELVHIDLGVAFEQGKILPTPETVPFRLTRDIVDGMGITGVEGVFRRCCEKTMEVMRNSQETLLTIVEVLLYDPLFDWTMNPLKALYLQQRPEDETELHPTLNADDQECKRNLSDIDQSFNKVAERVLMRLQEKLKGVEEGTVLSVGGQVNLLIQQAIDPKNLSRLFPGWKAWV
UniProt Q12888: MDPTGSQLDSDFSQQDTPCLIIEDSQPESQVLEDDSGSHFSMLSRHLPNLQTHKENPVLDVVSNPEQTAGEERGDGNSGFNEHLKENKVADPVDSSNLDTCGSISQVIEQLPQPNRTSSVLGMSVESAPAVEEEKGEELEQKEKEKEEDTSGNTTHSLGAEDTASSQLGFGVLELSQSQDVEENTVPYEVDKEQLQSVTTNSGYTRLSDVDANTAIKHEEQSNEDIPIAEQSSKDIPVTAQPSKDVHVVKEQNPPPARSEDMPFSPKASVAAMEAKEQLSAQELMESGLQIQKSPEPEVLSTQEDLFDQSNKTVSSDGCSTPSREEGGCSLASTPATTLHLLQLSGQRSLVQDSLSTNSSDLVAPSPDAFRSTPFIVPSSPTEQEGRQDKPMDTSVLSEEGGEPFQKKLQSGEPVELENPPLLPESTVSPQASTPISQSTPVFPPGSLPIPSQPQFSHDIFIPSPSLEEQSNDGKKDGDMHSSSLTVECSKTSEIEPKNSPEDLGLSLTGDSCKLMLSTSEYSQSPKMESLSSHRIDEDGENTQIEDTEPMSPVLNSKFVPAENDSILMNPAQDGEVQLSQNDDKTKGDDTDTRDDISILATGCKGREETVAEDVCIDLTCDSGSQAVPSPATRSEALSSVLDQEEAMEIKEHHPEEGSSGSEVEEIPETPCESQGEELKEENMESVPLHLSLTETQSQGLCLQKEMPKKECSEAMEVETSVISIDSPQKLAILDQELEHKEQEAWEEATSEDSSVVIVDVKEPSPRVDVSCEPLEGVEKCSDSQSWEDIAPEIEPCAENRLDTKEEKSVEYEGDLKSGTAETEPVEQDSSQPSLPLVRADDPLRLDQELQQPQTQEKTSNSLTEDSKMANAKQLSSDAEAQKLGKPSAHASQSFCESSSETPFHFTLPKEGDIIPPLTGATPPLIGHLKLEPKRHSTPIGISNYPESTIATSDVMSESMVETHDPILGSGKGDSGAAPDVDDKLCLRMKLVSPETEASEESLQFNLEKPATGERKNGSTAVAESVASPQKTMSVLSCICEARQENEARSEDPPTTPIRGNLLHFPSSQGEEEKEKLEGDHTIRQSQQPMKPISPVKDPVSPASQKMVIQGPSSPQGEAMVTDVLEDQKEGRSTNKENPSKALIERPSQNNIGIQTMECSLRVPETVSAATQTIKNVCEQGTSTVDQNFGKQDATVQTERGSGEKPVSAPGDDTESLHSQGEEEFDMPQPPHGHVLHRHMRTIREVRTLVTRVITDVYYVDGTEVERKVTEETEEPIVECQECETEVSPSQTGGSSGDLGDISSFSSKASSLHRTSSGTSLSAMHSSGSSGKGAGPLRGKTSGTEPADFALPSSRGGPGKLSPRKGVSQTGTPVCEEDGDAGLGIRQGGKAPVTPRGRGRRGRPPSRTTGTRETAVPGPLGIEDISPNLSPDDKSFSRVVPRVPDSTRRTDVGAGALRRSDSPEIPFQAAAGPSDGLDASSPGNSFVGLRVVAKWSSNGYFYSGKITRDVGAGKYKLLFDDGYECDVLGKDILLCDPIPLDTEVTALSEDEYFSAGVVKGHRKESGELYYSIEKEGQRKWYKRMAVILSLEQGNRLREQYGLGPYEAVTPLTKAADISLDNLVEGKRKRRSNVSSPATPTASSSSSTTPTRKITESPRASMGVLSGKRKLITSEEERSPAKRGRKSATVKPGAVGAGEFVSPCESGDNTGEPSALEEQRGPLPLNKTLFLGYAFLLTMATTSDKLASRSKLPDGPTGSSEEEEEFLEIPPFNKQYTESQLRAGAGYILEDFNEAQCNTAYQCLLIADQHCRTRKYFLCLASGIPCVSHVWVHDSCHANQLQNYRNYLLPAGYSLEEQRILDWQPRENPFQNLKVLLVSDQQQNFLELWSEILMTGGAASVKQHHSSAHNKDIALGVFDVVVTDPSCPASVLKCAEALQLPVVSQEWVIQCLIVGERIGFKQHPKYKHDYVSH
UniProt Q15022: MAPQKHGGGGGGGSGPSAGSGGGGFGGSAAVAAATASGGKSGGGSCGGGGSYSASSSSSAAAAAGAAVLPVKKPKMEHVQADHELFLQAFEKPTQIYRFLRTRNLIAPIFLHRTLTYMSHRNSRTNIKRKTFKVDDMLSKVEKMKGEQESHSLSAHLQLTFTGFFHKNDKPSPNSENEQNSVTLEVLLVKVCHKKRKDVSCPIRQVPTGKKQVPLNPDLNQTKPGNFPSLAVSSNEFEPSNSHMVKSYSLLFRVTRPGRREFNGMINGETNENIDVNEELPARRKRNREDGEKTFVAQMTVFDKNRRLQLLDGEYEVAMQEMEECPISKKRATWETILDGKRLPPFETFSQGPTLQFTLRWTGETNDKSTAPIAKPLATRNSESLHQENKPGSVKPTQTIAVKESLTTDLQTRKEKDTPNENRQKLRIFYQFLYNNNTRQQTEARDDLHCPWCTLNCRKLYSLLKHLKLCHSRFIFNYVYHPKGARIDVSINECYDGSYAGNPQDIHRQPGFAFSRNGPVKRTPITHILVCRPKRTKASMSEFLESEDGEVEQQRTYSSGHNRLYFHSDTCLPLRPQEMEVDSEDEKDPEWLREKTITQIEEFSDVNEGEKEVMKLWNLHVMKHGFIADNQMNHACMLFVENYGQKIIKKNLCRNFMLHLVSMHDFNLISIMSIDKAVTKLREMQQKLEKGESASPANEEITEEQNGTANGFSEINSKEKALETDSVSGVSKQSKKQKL

Row | binding [2] | Substance | binding [1]
1 | – | 53BP1 (p53 binding protein 1) (from UniProt Q12888 1-1972) | binds
2 | no binding | SUZ12 (a core subunit of PRC2) (from UniProt Q15022 1-739) | no binding

Source: publication PMC11398655
